Results taken from article PMC8534003, “The Chemokine-Based Peptide, CXCL9(74-103), Inhibits Angiogenesis by Blocking Heparan Sulfate Proteoglycan-Mediated Signaling of Multiple Endothelial Growth Factors” (Cancers, 2021).
Results are given in words; binding and its absence hold for the method and conditions named.

Target: human recombinant EGF (human)
Test: ELISA; ELISA-like direct binding assay: 96-well plates coated with 50 ng/mL growth factor in PBS at 4 °C overnight; blocked with 0.1% casein, 0.05% Tween 20 in PBS; biotinylated CXCL9(74-103) 1-1000 ng/mL, 37 °C, 1 h; detected with streptavidin-HRP; both purified

Binder: KKKQKNGKKHQKKKVLKVRKSQRSRQKKTT (biotin at the NH2-terminus) [biotinylated CXCL9(74-103)]
- binding: no binding (tested: 1-1000 ng/mL biotinylated CXCL9(74-103))
